Test results published in article PMC12343803.
No constants are given. Whether binding was seen depends on the method and setting. Binding seen in cells or lysates may run through a third protein. Some results given as binding are weak or reduced against the parent protein; the word gives no strength.

Chains of the proteins cited; added tags and fusions are not shown.
UniProt P10415: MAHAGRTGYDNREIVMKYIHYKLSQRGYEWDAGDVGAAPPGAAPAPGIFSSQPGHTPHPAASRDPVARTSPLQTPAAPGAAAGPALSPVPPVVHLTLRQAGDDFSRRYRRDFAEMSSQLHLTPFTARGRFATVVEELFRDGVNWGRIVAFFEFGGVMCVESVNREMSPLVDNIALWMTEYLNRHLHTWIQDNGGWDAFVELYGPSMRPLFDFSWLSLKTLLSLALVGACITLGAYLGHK
UniProt Q07817: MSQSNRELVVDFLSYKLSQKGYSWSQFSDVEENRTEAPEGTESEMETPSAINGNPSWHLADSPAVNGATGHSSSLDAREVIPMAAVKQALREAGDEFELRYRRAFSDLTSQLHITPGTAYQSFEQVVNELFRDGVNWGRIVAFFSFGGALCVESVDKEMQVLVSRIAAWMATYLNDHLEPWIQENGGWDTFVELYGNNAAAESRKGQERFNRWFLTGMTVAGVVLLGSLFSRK
UniProt P19474: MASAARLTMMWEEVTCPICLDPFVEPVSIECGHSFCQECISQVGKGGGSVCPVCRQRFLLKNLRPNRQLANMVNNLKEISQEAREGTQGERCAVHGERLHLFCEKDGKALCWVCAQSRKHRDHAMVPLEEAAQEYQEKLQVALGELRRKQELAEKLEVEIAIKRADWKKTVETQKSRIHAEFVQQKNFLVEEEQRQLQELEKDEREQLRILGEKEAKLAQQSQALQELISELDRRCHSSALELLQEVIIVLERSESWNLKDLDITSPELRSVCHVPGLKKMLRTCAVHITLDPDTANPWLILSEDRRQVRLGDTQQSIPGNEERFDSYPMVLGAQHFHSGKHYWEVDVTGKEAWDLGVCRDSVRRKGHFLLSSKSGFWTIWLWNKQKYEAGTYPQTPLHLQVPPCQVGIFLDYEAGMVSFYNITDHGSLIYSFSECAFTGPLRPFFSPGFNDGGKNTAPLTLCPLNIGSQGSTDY

Experiments:
[1] = target: BCL2 (UniProt P10415); test: co-IP; cells treated with N-8 (Supplementary Fig. 5F); cells, constructs and bait not given
[2] = target: BCL-XL (UniProt Q07817); test: as above
[3] = target: BCL-XL (tagged, in MIGR1 vector) (UniProt Q07817); test: co-IP; cells co-transfected with or without TRIM21 and BCL-XL or MCL1; lysed in Co-IP lysis buffer, incubated overnight at 4 °C with bead-labeled antibodies or Protein A/G plus antibodies, washed five times, western blot

| binding [1] | binding [2] | binding [3] | Substance |
| --- | --- | --- | --- |
| binds | binds |  | TRIM21 (from UniProt P19474 1-475) |
|  |  | binds | TRIM21-Flag (from UniProt P19474 1-475) |
